Measurements published in US20210347821A1.
These are yes or no findings as the source states them, for the method shown. In cells and extracts the contact can be indirect. Some results given as binding are weak or reduced against the parent protein; the word gives no strength.

Target: GluA2 subunit of the AMPA receptor (endogenous, mouse spinal cord) (mouse), P23819
Assay: co-IP and immunoblot, mouse spinal cord lysates
Settings: remark: other sources report otherwise

B1: PICK1 (endogenous, mouse spinal cord), Q62083 1-416 (protein, UniProt Q62083 1-416, looked up)
chain: MFADLDYDIEEDKLGIPTVPGKVTLQKDAQNLIGISIGGGAQYCPCLYIVQVFDNTPAALDGTVAAGDEITGVNGKSIKGKTKVEVAKMIQEVKGEVTIHYNKLQADPKQGMSLDIVLKKVKHRLVENMSSGTADALGLSRAILCNDGLVKRLEELERTAELYKGMTEHTKNLLRAFYELSQTHRAFGDVFSVIGVREPQPAASEAFVKFADAHRSIEKFGIRLLKTIKPMLTDLNTYLNKAIPDTRLTIKKYLDVKFEYLSYCLKVKEMDDEEYSCIGPRRALYRVSTGNYEYRLILRCRQEARARFSQMRKDVLEKMELLDQKHVQDIVFQLQRFVSTMSKYYNDCYAVLQDADVFPIEVDLAHTTLAYGPNQGSFTDGEEEDEEEEDGAAREVSKDACGATGPTDKGGSWCDS
In the case of B1, the binding is reported as “binds”.
